Paper PMC10658506
These are yes or no findings as the source states them, for the method shown. Some binding calls cover weakened binding; strength is not graded here. Sequences can lack the tags named with a protein.

Biological target: T1, yeast-displayed wild-type human IL-11 (human) (UniProt P20809)
T1 sequence: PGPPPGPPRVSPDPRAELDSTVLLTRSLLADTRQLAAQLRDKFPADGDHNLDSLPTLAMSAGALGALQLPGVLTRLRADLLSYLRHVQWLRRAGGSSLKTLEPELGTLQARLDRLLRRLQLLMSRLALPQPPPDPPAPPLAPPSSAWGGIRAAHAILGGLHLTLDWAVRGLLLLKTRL
Assay: flow cytometry on cells; yeast-displayed IL-11 variants incubated with varying concentrations of soluble IL-11R or mIL-11R overnight at room temperature, washed with BPBS; receptor detected with anti-his AF647, display with anti-c-myc; apparent Kd from the fraction bound of the expressing …; only the binder purified

B1: soluble human IL-11 receptor extracellular domain, his-tagged (receptor, UniProt Q14626 24-370)
chain: SPCPQAWGPPGVQYGQPGRSVKLCCPGVTAGDPVSWFRDGEPKLLQGPDSGLGHELVLAQADSTDEGTYICQTLDGALGGTVTLQLGYPPARPVVSCQAADYENFSCTWSPSQISGLPTRYLTSYRKKTVLGADSQRRSPSTGPWPCPQDPLGAARCVVHGAEFWSQYRINVTEVNPLGASTRLLDVSLQSILRPDPPQGLRVESVPGYPRRLRASWTYPASWPCQPHFLLKFRLQYRPAQHPAWSTVEPAGLEEVITDAVAGLPHAVRVSARDFLDAGTWSTWSPEAWGTPSTGTIPKEIPAWGQLHTQPEVEPQVDSPAPPRPSLQPHPRLLDHRDSVEQVAVLA
Question: B1 was tested. Which binding did it give?
Answer: binds
